Source: article PMC6731588
These are yes or no findings as the source states them, for the method shown. In cells and extracts the contact can be indirect. Some results given as binding are weak or reduced against the parent protein; the word gives no strength.

Protein sequences, listed by entry. Tags and fused reporters are not part of them. Residues count along the entry.
UniProt P46821, residues 2207-2468: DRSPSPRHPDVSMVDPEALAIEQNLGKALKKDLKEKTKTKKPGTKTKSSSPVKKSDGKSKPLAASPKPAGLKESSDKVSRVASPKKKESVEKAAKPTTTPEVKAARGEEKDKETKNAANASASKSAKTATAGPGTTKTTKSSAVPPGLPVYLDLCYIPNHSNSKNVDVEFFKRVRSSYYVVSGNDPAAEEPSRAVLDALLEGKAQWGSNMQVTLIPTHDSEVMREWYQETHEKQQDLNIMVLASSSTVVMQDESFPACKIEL

Target: GST-MAP 1B-LC1 (microtubule-associated protein 1B light chain) (UniProt P46821)
Assay: pull-down; 50 μg GST-MAP 1B-LC1 or GST on glutathione-Sepharose beads incubated with A549 cell lysate (1 mg) in 1 mL bacterial lysis buffer, 12 h, 4 °C; four washes; western blot with anti-hnRNP K; only the target purified

## heterogeneous nuclear ribonucleoprotein K (from UniProt P61978 1-463)
  binding: binds
